These results are taken from US5747448A (Meiji Seika Kaisha, Ltd., priority 1993, dated 1998).

The first data set can be described thus: general procedure: solution-phase peptide synthesis; DCC/HOBt (fragment condensation); EDCI.HCl/HOBt/NMM with alkali metal chlorides. As to conditions: coupling step.
Boc-(-L-MeLeu-D-Lac-)2 -OBn yielded a step yield of 78%. On the same count and under the same terms, next, Boc-(-L-MeLeu-D-Lac-)4 -OBn: 83%; Boc-(L-MeLeu-D-Lac-L-Leu-D-PhLac)2 -OBn: 49.7%. For the substance “Boc-(L-MeLeu-D-Lac-L-MeLeu-D-TYRA(OBn))2 -O-All”, the step yield is given as 44.4%.

Consider “Boc-(L-MeLeu-D-OctA-L-MeLeu-D-Lac)2 -OBn”, for which the step yield is 53.8%. With Boc-(L-MeLeu-D-PhLac-L-Leu-D-Lac)2 -OBn, the step yield is recorded as 70.4%. Take “Boc-(L-MeLeu-D-VALA-L-MeLeu-D-Lac)2 -OBn”: the step yield is given as 64.0%. Consider “Boc-(L-MeLeu-D-VALA-L-MeLeu-D-PhLac)2-OBn”, for which the step yield is reported as 67%. Substance “Boc-(L-MeLeu-D-isoLEUA-L-MeLeu-D-PhLac)2 -OBn” showed a step yield of 37.3%.

Substance “Boc-(L-MeLeu-D-norLEUA-L-MeLeu-D-PhLac)2 -OBn” yielded a step yield of 54.5%.

As for “Boc-L-MeLeu-D-LEUA-L-MeLeu-D-Lac-L-MeLeu-D-PhLac-L-MeLeu-D-Lac-OBn”, the step yield came to 73%. On to Boc-L-MeLeu-D-Lac-L-Leu-D-PhLac-OBn, for which the step yield came out at 72.2%. As to “Boc-L-MeLeu-D-Lac-L-MeLeu-D-PhLac-L-MeLeu-D-Lac-OBn”, the step yield stood at 75%.

“Boc-L-MeLeu-D-Lac-L-MeLeu-D-PhLac-L-MeLeu-D-norLEUA-L-MeLeu-D-PhLac-OBn” yielded a step yield of 80.5%. Consider “Boc-L-MeLeu-D-Lac-L-MeLeu-D-TYRA(OBn)-L-MeLeu-D-Lac-L-MeLeu-D-PhLac-OBn”, for which the step yield is 46.0%.

The substance “Boc-L-MeLeu-D-Lac-L-MeLeu-D-TYRA(OBn)-O-All” gave a step yield of 77.4%. Still for that read-out and setting: under “Boc-L-MeLeu-D-OctA-L-MeLeu-D-Lac-L-MeLeu-D-PhLac-L-MeLeu-D-Lac-OBn” stands 68.4%; under Boc-L-MeLeu-D-OctA-L-MeLeu-D-Lac-OBn, 56.8%; under Boc-L-MeLeu-D-PhLac-L-Leu-D-Lac-OBn, 90%.

In turn, Boc-L-MeLeu-D-PhLac-L-MeLeu-D-Lac-OBn displayed a step yield of 67%. As for Boc-L-MeLeu-D-VALA-L-MeLeu-D-Lac-OBn, the step yield is on record as 52%. The same measure, in the same setting: next, Boc-L-MeLeu-D-VALA-L-MeLeu-D-PhLac-OBn: 74.2%; “Boc-L-MeLeu-D-isoLEUA-L-MeLeu-D-PhLac-OBn”: 47.9%; “Boc-L-MeLeu-D-norLEUA-L-MeLeu-D-PhLac-OBn”: 52.5%.

The same data set, now with this note: cyclisation step.
The substance Cyclo-(L-MeLeu-D-PhLac-L-Leu-D-Lac)2 showed a cyclisation yield of 62%. Turning to “Cyclo-(L-MeLeu-D-isoLEUA-L-MeLeu-D-PhLac)2”, the cyclisation yield came out at 29.0%.

Substance “Cyclo-(L-MeLeu-D-norLEUA-L-MeLeu-D-PhLac)2” returned a cyclisation yield of 35.8%. Substance cyclo(L-MeLeu-D-VALA-L-MeLeu-D-PhLac)2 showed a cyclisation yield of 56.5%.

Take “cyclo-(-L-MeLeu-D-Lac-L-MeLeu-D-PhLac-L-MeLeu-D-Lac-L-MeLeu-D-LEUA-)”: the cyclisation yield came to 44%.

For “cyclo-(-L-Meleu-D-Lac-L-MeLeu-D-TYRA-L-MeLeu-D-Lac-L-MeLeu-D-PhLac)”, the cyclisation yield was 33%.

Turning to cyclo-(L-MeLeu-D-Lac-)4, the cyclisation yield amounted to 86%. Turning to cyclo-(L-MeLeu-D-Lac-L-Leu-D-PhLac)2, the cyclisation yield came out at 55.8%.

Substance “cyclo-(L-MeLeu-D-Lac-L-MeLeu-D-PhLac-L-MeLeu-D-norLEUA-L-MeLeu-D-PhLac)” returned a cyclisation yield of 82.0%.

For the substance “cyclo-(L-MeLeu-D-Lac-L-MeLeu-D-TYRA(OBn))2”, the cyclisation yield came out at 60.5%. Same read-out and setting: under cyclo-(L-MeLeu-D-OctA-L-MeLeu-D-Lac)2 stands 92%; under cyclo-(L-MeLeu-D-VALA-L-MeLeu-D-Lac)2, 92%.

Staying with this data set, now noted: late stage modification step.
On to Boc-(-L-MeLeu-D-Lac-)2 -OH, for which the step yield is given as 100%. Substance “Boc-(L-MeLeu-D-Lac-L-MeLeu-D-TYRA(OBn))2 -O-BH” yielded a step yield of 100%. Substance H-(-L-MeLeu-D-Lac-)2 -OBn gave a step yield of 100%. “H-L-MeLeu-D-Lac-L-MeLeu-D-TYRA(OBn)-O-All” gave a step yield of 94.0%. On to H-L-MeLeu-D-PhLac-L-MeLeu-D-Lac-OBn, for which the step yield stood at 98%. cyclo-(L-MeLeu-D-Lac-L-MeLeu-D-TYRA)2 had a step yield of 63.0%. In turn, “cyclo-(L-MeLeu-D-PhLac-L-MeLeu-D-Lac-L-MeLeu-D-TYRA(3,5-di-Br)-L-MeLeu-D-Lac)” yielded a step yield of 89.0%. “cyclo-(L-MeLeu-D-PhLac-L-MeLeu-D-Lac-L-MeLeu-D-TYRA(3,5-di-Br,O-Me)-L-MeLeu-D-Lac)” had a step yield of 53.1%. “cyclo-(L-MeLeu-D-PhLac-L-MeLeu-D-Lac-L-MeLeu-D-TYRA(3,5-di-Cl)-L-MeLeu-D-Lac)” yielded a step yield of 37.2%.

Substance “cyclo-(L-MeLeu-D-PhLac-L-MeLeu-D-Lac-L-MeLeu-D-TYRA(3,5-diiode)-L-MeLeu-D- Lac)” registered a step yield of 42.4%.

“cyclo-(L-MeLeu-D-PhLac-L-MeLeu-D-Lac-L-MeLeu-D-TYRA(O-All)-L-MeLeu-D-Lac)” came in with a step yield of 73.8%. Substance “cyclo-(L-MeLeu-D-PhLac-L-MeLeu-D-Lac-L-MeLeu-D-TYRA(O-Me,3,5-di-I)-L-MeLeu-D-Lac)” registered a step yield of 61.9%. With “cyclo-(L-MeLeu-D-PhLac-L-MeLeu-D-Lac-L-MeLeu-D-TYRA(O-Oct)-L-MeLeu-D-Lac)”, the step yield stood at 70.6%.

Consider “cyclo-(L-MeLeu-D-PhLac-L-MeLeu-D-Lac-L-MeLeu-D-TYRA(O-THP)-L-MeLeu-D-Lac)”, for which the step yield is recorded as 91%. Substance “cyclo-(L-MeLeu-D-PhLac-L-MeLeu-D-Lac-L-MeLeu-D-TYRA(O-Tr)-L-MeLeu-D-Lac)” displayed a step yield of 56%. For “cyclo-(L-MeLeu-D-PhLac-L-MeLeu-D-Lac-L-MeLeu-D-TYRA(O-iso-Pr)-L-MeLeu-D-Lac)”, the step yield came to 50%. On to “cyclo-(L-MeLeu-D-PhLac-L-MeLeu-D-Lac-L-MeLeu-D-TYRA(O-n-Bu)-L-MeLeu-D-Lac)”, for which the step yield amounted to 73.7%.

As for “cyclo-(L-MeLeu-D-PhLac-L-MeLeu-D-Lac-L-MeLeu-D-TYRA(O-n-Pr)-L-MeLeu-D-Lac)”, the step yield was 47%. The substance “cyclo-(L-MeLeu-D-PhLac-L-MeLeu-D-Lac-L-MeLeu-D-TYRA(O-t-Bu)-L-MeLeu-D-Lac)” registered a step yield of 77.6%.

In the case of “cyclo-(L-MeLeu-D-PhLac-L-MeLeu-D-Lac-L-MeLeu-D-TYRA(OBn)-L-MeLeu-D-Lac)”, the step yield worked out at 95.8%. The substance “cyclo-(L-MeLeu-D-PhLac-L-MeLeu-D-Lac-L-MeLeu-D-TYRA(OCOO-isoBu)-L-MeLeu-D- Lac)” registered a step yield of 58.6%.

The same data set, now with this note: lipidation step.
As for “cyclo-(L-MeLeu-D-PhLac-L-MeLeu-D-Lac-L-MeLeu-D-TYRA(OCOC17 H35)-L-MeLeu-D-Lac)”, the step yield is given as 67.1%.
